The whole screen tested about 390,000 compounds, of which about 4,000 (1%) were called active. Inconclusive results, whose numbers are uncertain, are shown with a selection of clear calls. Calls come from the whole dose curve; as a rule, active = well fitted inhibition curve with a large enough effect; inconclusive = small, poorly fitted or top-dose-only effect, or another doubt; inactive = no such curve, though single readings can be large or run the other way. Potencies beside an inconclusive call are fits to weak or partial responses and may not hold up.
Target: DNA polymerase iota (Homo sapiens) (UniProt Q9UNA4)
Experiment: qHTS for Inhibitors of Polymerase Iota
Details: Pol iota fluorescent replication assay, 10 min; series mostly up to 115 µM; activity, negative = inhibition: at the top concentration
How it was run: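 Pol iota at 10 nM preincubated 15 min with compounds at room temperature; reaction started with fluorescent substrate, 50 nM final. Fluorescence read kinetically at 0 and 10 min; buffer-only wells as negative control.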
Potency is the fitted concentration of half-maximal effect.

Amino acid sequences for entries named in this document (tags omitted). A change or cut given only in a name is not applied to a line headed by its entry.
UniProt Q9UNA4: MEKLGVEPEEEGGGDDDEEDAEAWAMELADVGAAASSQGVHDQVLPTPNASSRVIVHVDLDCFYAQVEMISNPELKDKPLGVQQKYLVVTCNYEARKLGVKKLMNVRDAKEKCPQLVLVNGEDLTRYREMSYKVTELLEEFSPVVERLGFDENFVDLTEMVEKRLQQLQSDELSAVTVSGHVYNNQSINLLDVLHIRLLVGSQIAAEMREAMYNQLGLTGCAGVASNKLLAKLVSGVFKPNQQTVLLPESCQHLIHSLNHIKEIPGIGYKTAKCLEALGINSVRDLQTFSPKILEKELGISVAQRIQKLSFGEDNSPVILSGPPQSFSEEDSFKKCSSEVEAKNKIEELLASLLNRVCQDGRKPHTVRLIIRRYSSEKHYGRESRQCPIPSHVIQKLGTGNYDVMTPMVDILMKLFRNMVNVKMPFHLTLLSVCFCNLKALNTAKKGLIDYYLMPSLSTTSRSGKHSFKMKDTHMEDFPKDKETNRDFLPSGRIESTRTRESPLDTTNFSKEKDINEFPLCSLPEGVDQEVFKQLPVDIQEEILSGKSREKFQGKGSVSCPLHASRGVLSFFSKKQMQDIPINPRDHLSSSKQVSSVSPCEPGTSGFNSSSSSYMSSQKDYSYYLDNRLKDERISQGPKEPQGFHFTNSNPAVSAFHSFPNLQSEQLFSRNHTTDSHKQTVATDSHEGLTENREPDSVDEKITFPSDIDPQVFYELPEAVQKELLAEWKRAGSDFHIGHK

activity, negative = inhibition, inactive:
CN1C/C(=C\c2ccc(N3CCOCC3)cc2)C(=O)/C(=C/c2ccc(N3CCOCC3)cc2)C1 24.2%, O=C(COC(=O)c1cccc(OC(F)F)c1)Nc1ncccn1 -5.03%, CCOC(=O)N1CCN(S(=O)(=O)c2ccc(F)c(C(=O)Nc3cccc(Cl)c3C)c2)CC1 11.2%, Cc1ccc(S(=O)(=O)O)c(C)c1N1CCCC1=O 2.04%, Cc1ccc(CNc2ncnc3nc[nH]c23)cc1 16.1%, O=C(O)c1ccc(/C=N/n2cc(-c3ccccc3)[nH]c2=S)cc1 27.4%, Cc1nn(CC(=O)N2CCN(c3ccccc3)CC2)c(C)c1[N+](=O)[O-] 6.04%, O=C1C=C(O)CC(c2ccc(Cl)c(Cl)c2)C1 (centres undefined) 7.58%, CCOc1ccc(C(=O)Nc2cccc(NC(=O)c3ccc(C(C)(C)C)cc3)c2)cc1Br 5.58%, Cc1ccc(C(=O)N2CC(=O)NC(=O)C2)cc1 -2.57%, CC(C)C(=O)NC(=S)Nc1sc2c(c1C(N)=O)CCCC2 -3.91%, C=CCc1ccccc1OCc1nc2ccccc2n1CC -10.4%, Cc1ccccc1N1CCN(C2CCCN(C(=O)CCN3CCCCO3)C2)CC1 (centres undefined) 23.8%, COc1ccccc1Cn1c(=O)c2ccccc2n2c(SCC(=O)N3CCCCC3)nnc12 18.2%, Cc1cc(NC(=O)CSc2ncc(C(=O)Nc3ccc(Cl)cc3)c(=O)n2C)no1 -8.21%, CCCCCN1CC(=O)N2C(C)c3[nH]c4ccccc4c3C[C@H]2C1=O (some centres undefined) -20.8%, Nc1ncnc2c1cnn2C1CCCCC1 1.68%

Potency, active:
CC1CCN(S(=O)(=O)c2ccc(NC(=O)Cn3nnc(-c4ccccc4F)n3)cc2)CC1 50.1 µM, CC(=O)NS(=O)(=O)c1ccc(NC(=O)c2cc3c(=O)n4ccccc4nc3s2)cc1 35.5 µM

Potency, inconclusive:
C#CCOCCOCCOCCNc1nc(N2CCN(C(=O)Cn3cc(CCCN=C(N)N)nn3)CC2)nc(N2CCN(C(=O)[C@H]([C@@H](C)CC)n3cc(CCCCN)nn3)CC2)n1 1.26 µM [inhibitor, full curve, poor fit], COc1cc(OC)cc(C(=O)N[C@H](C(=O)NCc2ccccc2)C(C)C)c1 56.2 µM [inhibitor, partial curve, poor fit], CCCC(c1nnnn1Cc1ccc(OC)cc1)N1CCN(c2ccccc2OC)CC1 (centres undefined) 11.2 µM [inhibitor, partial curve, poor fit], COc1cc(OC)cc(C(=O)Nc2ccc(S(=O)(=O)N3CCCCC3c3cccnc3)cc2)c1 (centres undefined) 89.1 µM [inhibitor, single point], O=C(Nc1ccc(O)cc1)c1ccc(NC(=O)c2cccs2)cc1 39.8 µM [inhibitor, single point], CC1CCN(C(=S)NC(=O)c2ccc(C(C)(C)C)cc2)CC1 11.2 µM [inhibitor, partial curve, poor fit], O=C(/C=C/c1ccco1)Nc1nnc(-c2ccco2)s1 50.1 µM [inhibitor, partial curve, poor fit], Cn1cc(Br)c(C(=O)Nc2ncc(Br)s2)n1 17.8 µM [inhibitor, full curve, poor fit], COc1cc(/C=C\C(=O)OCn2nnc3ccccc3c2=O)cc(OC)c1OC 20 µM [inhibitor, partial curve, poor fit], CCc1nnc(NS(=O)(=O)c2ccc(NC(=S)NC(=O)/C=C/c3ccccc3)cc2)s1 15.8 µM [inhibitor, full curve, poor fit], Cc1ccc(-c2cc(-c3ccco3)c3c(N)c(C(=O)NN)oc3n2)cc1 8.91 µM [inhibitor, partial curve, poor fit], COCCN1C=C2C(=O)C(C)(OC(=O)c3cccs3)C(=O)C=C2C=C1CCCC(=O)OC (centres undefined) 25.1 µM [inhibitor, partial curve, poor fit], NNC(=O)COc1cccc2cccnc12 7.08 µM [inhibitor, single point], COc1cccc(CSc2nc3ccccc3[nH]2)c1 79.4 µM [inhibitor, single point], O=C(Oc1ccccc1N1C(=O)C2CC=CCC2C1=O)c1ccc(Br)cc1 (centres undefined) 89.1 µM [inhibitor, single point], N#CC1=C(N)N(c2ccccc2)C2=C(C(=O)CCC2)C1c1cccs1 (centres undefined) 15.8 µM [inhibitor, full curve], O=C(COc1ccc(Cl)cc1Br)OCC(=O)c1ccc[nH]1 63.1 µM [inhibitor, single point], Oc1cc(Nc2ccncc2)cc2cccnc12 22.4 µM [inhibitor, partial curve, poor fit], CCOC(=O)c1ccc(NC(=O)C2CC(=O)N(c3ccc4c(c3)OCCO4)C2)cc1 (centres undefined) 56.2 µM [inhibitor, partial curve, poor fit], Cc1ccc(NS(=O)(=O)c2cccc3nsnc23)cc1[N+](=O)[O-] 44.7 µM [inhibitor, partial curve, poor fit], Cc1[nH]c2ccccc2c1C1=CC(=O)C=CC1=O 15.8 µM [inhibitor, full curve, poor fit], O=C(CCn1c2c(c3ccccc31)CCCC2)NNC(=O)c1ccc([N+](=O)[O-])cc1 112 µM [inhibitor, partial curve, poor fit], O=C(Cn1ncc(Cl)c(Cl)c1=O)N1CCN(S(=O)(=O)c2ccc3ccccc3c2)CC1 22.4 µM [inhibitor, full curve], Cc1cccc(N2C(=O)N3[C@@H]4c5ccccc5OC[C@@H]4[C@@H](c4ccccc4)[C@@]3(C)C2=O)c1 25.1 µM [inhibitor, partial curve, poor fit], CCOC(=O)CSc1nnc(NC(=O)C2CC(=O)N(c3ccc(F)cc3)C2)s1 (centres undefined) 17.8 µM [inhibitor, partial curve], COc1ccc(-c2nnc3ccc(SC(C(C)=O)C(C)=O)nn23)cc1OC 17.8 µM [inhibitor, full curve, poor fit], C#CCOCCOCCOCCNc1nc(N2CCN(C(=O)C([C@@H](C)O)n3cc([C@@H](N)CCCCN)nn3)CC2)nc(N2CCN(C(=O)C([C@@H](C)O)n3cc([C@@H](N)CCCCN)nn3)CC2)n1 (some centres undefined) 14.1 µM [inhibitor, partial curve, poor fit], Cn1nccc1C(=O)NCCN1C(=O)OC(C)(C)C1(C)O (centres undefined) 56.2 µM [inhibitor, partial curve, poor fit], CCCn1cc(C(CC(=O)O)C(=O)O)c2ccccc21 (centres undefined) 39.8 µM [inhibitor, full curve, poor fit], O=C1C=C(Nc2cccc(Cl)c2)CC(c2ccco2)C1 (centres undefined) 79.4 µM [inhibitor, partial curve, poor fit], O=C(OCC(=O)N1CCN(c2ccccc2)CC1)c1ccc2ncsc2c1 1 µM [inhibitor, full curve, poor fit], CC(=O)c1cccc(NC(=O)c2ccc(NC(=O)CC3SC(N4CCCCC4)=NC3=O)cc2)c1 (centres undefined) 39.8 µM [inhibitor, single point], CCOC(=O)CSC1=C(C#N)C(c2ccco2)C(C(=O)OCc2ccccc2)=C(C)N1 (centres undefined) 25.1 µM [inhibitor, single point], CCOC(=O)/C=C/C(=O)OCC(=O)N1CCN(C(=O)c2ccco2)CC1 14.1 µM [inhibitor, full curve, poor fit], COc1ccccc1N1CCN(C2CCCN(C(=O)CCN3CCCCO3)C2)CC1 (centres undefined) 100 µM [inhibitor, single point], CC(C)CC1Nc2ncnc(N3CCCCC3)c2N(Cc2ccccc2)C1=O (centres undefined) 15.8 µM [inhibitor, full curve, poor fit], CC(C)[C@H]1COCCS(=O)(=O)N1Cc1cccc([N+](=O)[O-])c1 100 µM [inhibitor, single point], O=C(Cn1c(=O)n(Cc2ccco2)c(=O)c2c3c(sc21)CCCC3)Nc1ccccc1 10 µM [inhibitor, full curve, poor fit], O=C(Nc1nnc(SCc2cccnc2)s1)C1CC(=O)N(c2ccc(F)cc2)C1 (centres undefined) 28.2 µM [inhibitor, partial curve], CCOc1ccc2c(c1)nc(SCC(=O)c1cccs1)n2C 39.8 µM [inhibitor, single point], CCOC(=O)c1sc(/N=C/Nc2nc(C)c(C(=O)OCC)s2)nc1C 89.1 µM [inhibitor, single point], COc1ccc(S(=O)(=O)N2CCN(C(=O)CC3CC4CCC3C4)CC2)cc1 (centres undefined) 79.4 µM [inhibitor, partial curve, poor fit], O=C1NC(=O)c2cc(NC(=O)C3CCCCC3)ccc21 89.1 µM [inhibitor, single point], O=C(CSc1nnc(CNc2ccc(F)cc2)n1Cc1ccccc1)N1CCOCC1 89.1 µM [inhibitor, single point], CC(C)(C)N=Cc1c(O)ccc2oc3c(c12)CCCC3 25.1 µM [inhibitor, full curve, poor fit]

Source: PubChem BioAssay AID588590 (National Center for Advancing Translational Sciences (NCATS), 2011)
